{"source": "patent US7423021B2", "about": "“Peptidic thrombin inhibitors” (NSCI Novel Science International GmbH, priority 2003, dated 2008)", "target": "thrombin (Homo sapiens, UniProt P00734)", "experiment": "in-vitro inhibition of the amidase activity of thrombin (fluorogenic substrate Tos-Gly-Pro-Arg-AMC)", "type": "biochemical", "parameters": "10 μl of human thrombin solution", "procedure": "The values of the inhibiting constants Ki were obtained from assays in which thrombin hydrolyzes the fluorogenic substrate Tos-Gly-Pro-Arg-(7-amino-4-methylcumarin). The assays were carried out in […] of assay buffer (0.05 M tris, 0.1 M NaCl, 0.1% PEG 8000, pH 7.6) with 10 μl of human thrombin solution (10^−5 U/μl in the assay buffer) and 140 μl of a solution of the fluorogenic substrate in an assay buffer at a concentration of 30 μM. Solutions of the test compound (10 μl) were added at various concentrations. The rates of the hydrolysis of the substrate were measured by monitoring the reactions at […] of the release of 7-amino-4-methylcumarin using AMC. The reaction reached an equilibrium state within three minutes, after thrombin, the substrate, and an inhibitor were mixed. The kinetic data of the competing inhibition (Km, Vmax, and Ki) were analyzed by means of the representation according to Hanes (A/V against A at various values of A, where A is the substrate concentration and V the reaction rate).", "note": "Part of at least one peptide drawing is inferred or uncertain, most often the ends. Square brackets hold non-standard residues; d marks the D form. Peptide text beside a SMILES is read from it. Trx = NC[C@H]1CC[C@H](C(=O)O)CC1; hArg = N=C(N)NCCCC[C@H](N)C(=O)O; dCha = N[C@H](CC1CCCCC1)C(=O)O; Aze = O=C(O)[C@@H]1CCN1"}
{"smiles": "N=C(N)NCCCC[C@H](NC(=O)[C@@H](Cc1ccc(O)cc1)NC(=O)[C@@H]1CCN1C(=O)[C@@H](CC1CCCCC1)NC(=O)[C@H]1CC[C@H](CN)CC1)C(N)=O", "note": "[Example 30, Tranexamic acid-D-Cha-L-Aze-D-Try-L-Har amide] (H-[Trx][dCha][Aze][dY][hArg]-NH2; N-terminus assumed)", "values": [{"measurement": "Ki", "value": 7, "unit": "nM"}]}
